These are yes or no findings as the source states them, for the method shown. In cells and extracts the contact can be indirect. Some entries that bind do so weakly or less than the wild type.
Molecular target: T1, FOXM1 (human (endogenous in U-2OS and 143B)) (UniProt Q08050)
T1 sequence: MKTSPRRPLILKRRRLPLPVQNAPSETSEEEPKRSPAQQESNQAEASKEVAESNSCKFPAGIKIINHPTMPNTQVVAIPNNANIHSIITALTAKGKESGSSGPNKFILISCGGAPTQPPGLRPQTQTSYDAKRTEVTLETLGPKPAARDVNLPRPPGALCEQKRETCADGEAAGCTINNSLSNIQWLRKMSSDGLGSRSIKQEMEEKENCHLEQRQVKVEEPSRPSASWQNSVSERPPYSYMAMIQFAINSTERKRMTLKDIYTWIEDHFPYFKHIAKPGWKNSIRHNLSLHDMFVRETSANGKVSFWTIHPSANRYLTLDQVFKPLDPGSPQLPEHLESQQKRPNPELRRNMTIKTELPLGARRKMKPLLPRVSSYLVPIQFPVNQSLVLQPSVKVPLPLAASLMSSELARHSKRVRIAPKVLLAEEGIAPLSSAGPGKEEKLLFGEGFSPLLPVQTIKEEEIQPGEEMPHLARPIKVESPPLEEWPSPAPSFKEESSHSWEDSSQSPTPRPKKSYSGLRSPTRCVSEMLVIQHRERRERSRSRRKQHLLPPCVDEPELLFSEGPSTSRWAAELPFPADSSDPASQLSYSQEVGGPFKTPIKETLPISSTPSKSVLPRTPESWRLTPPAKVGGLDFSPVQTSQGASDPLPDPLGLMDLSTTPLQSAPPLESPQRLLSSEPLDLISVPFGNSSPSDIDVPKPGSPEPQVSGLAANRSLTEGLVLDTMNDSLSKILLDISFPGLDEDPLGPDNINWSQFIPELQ
Test: co-IP; total protein from U-2OS and 143B cells in RIPA lysis buffer (Strong); precipitated with anti-FOXM1 antibody and Protein A/G magnetic beads; western blot; IgG as negative control

binding: binds
B1: hyaluronan-mediated motility receptor (HMMR) (protein, UniProt O75330 1-724)
chain: MSFPKAPLKRFNDPSGCAPSPGAYDVKTLEVLKGPVSFQKSQRFKQQKESKQNLNVDKDTTLPASARKVKSSESKESQKNDKDLKILEKEIRVLLQERGAQDRRIQDLETELEKMEARLNAALREKTSLSANNATLEKQLIELTRTNELLKSKFSENGNQKNLRILSLELMKLRNKRETKMRGMMAKQEGMEMKLQVTQRSLEESQGKIAQLEGKLVSIEKEKIDEKSETEKLLEYIEEISCASDQVEKYKLDIAQLEENLKEKNDEILSLKQSLEENIVILSKQVEDLNVKCQLLEKEKEDHVNRNREHNENLNAEMQNLKQKFILEQQEREKLQQKELQIDSLLQQEKELSSSLHQKLCSFQEEMVKEKNLFEEELKQTLDELDKLQQKEEQAERLVKQLEEEAKSRAEELKLLEEKLKGKEAELEKSSAAHTQATLLLQEKYDSMVQSLEDVTAQFESYKALTASEIEDLKLENSSLQEKAAKAGKNAEDVQHQILATESSNQEYVRMLLDLQTKSALKETEIKEITVSFLQKITDLQNQLKQQEEDFRKQLEDEEGRKAEKENTTAELTEEINKWRLLYEELYNKTKPFQLQLDAFEVEKQALLNEHGAAQEQLNKIRDSYAKLLGHQNLKQKIKHVVKLKDENSQLKSEVSKLRCQLAKKKQSETKLQEELNKVLGIKHFDPSKAFHHESKENFALKTPLKEGNTNCYRAPMECQESWK

Source: article PMC11532242
